Results taken from PubChem BioAssay AID687009 (National Center for Advancing Translational Sciences (NCATS), 2013).
Inconclusive results, whose numbers are uncertain, are shown with a selection of clear calls. Potencies of inconclusive entries are doubtful fits and often do not repeat. Calls of active or inactive are those of the source. Calls follow the shape of the dose curve; as a rule, active = well fitted curve in the direction sought with a large enough effect; inconclusive = small, poorly fitted or top-dose-only effect, or another doubt; inactive = no such curve, though single readings can be large or run the other way.

Each compound was assayed against Lysine-specific histone demethylase 1A (Homo sapiens) (UniProt O60341) (assay: qHTS Assay for Inhibitors of Human Jumonji Domain Containing 2E (JMJD2E): Counterscreen with LSD1). Details: Amplex Red/HRP fluorescence; series mostly up to 57.1 µM; activity, negative = inhibition: at the top concentration.
Description: The fine interplay among methylation states of several lysine residues on the tails of histone proteins is a major determinant of the transcriptional state of the associated DNA coding regions and is commonly referred to as the histone code. Histone lysine demethylases catalyze the removal of methyl groups from methylated lysine sidechains on histones H3 and H4, thus antagonizing the reactions catalyzed by histone lysine methyltransferases. […] In search for novel inhibitors of JMJD2E demethylase, a member of the largest set of histone demethylases belonging to the Fe(II) and 2-oxoglutarate oxygenase (2OG) superfamily, we performed a quantitative high-throughput screen (Inglese 2006) by using an assay which utilizes a trimethylated peptide substrate corresponding to a fragment of histone H3 (sequence ARKme3STGGK) with detection of the formaldehyde co-product in real time by a formaldehyde dehydrogenase (FDH) coupled reaction. FDH catalyzes oxidation of formaldehyde to formic acid with the concomitant reduction of the non-fluorescent beta-nicotinamide adenine dinucleotide hydrate (NAD+) cofactor to the fluorescent NADH co-product. Compounds that were validated hits were screened against the histone LSD1 histone demethylase. […] NIH Chemical Genomics Center [NCGC] NIH Molecular Libraries Probe Centers Network [MLPCN] MLPCN Grant: MH084681 Assay Submitter (PI): Udo Oppermann, Structural Genomics Consortium, University of Oxford
The assay was performed in a buffer containing 10 mM HEPES, Na pH 7.5, 5 mM MgCl2, 50 mM KCl, 0.01% Nonidet P-40, and 0.1% BSA. LSD1 was sourced from BPS Bioscience (Cat. No. 50100, San Diego, CA) and the substrate peptide was synthesized and purified by Tufts University Core Facilities (Boston, MA). Reagents (3 microL) containing either buffer-only (inhibited control) or LSD1 (120 nM) were dispensed into a 1,536-well Aurora black solid bottom cycloolefin plate (see Table 1 for protocol steps). Compounds (23 nL) were transferred via Kalypsys pintool equipped with a 1,536-pin array. The plate was incubated for 10 min at room temperature, followed by the addition of 1 microL 4 X substrate (10 mM HEPES, pH 7.5, 8 U/mL HRP, 800 µM Amplex Red, and 200 microM H3K4Me2 peptide [Sequence H-ARTXQTARKSTGGKAPRKQLA-NH2, where X = Nepsilon,Nepsilon-dimethyl-L-lysine]) to start the reaction. The plate was then centrifuged at 1,000 rpm for 15 seconds, and the fluorescence intensity was recorded on a ViewLux High-throughput CCD imager (Perkin-Elmer) using standard TAMRA optics (525 nm excitation and 598 nm emission). The plate was then incubated for 30 min at room temperature, and a second read on the ViewLux was performed. The fluorescence intensity difference over the 30 min was used to calculate the respective reaction rate for each well.
CN(C)CCCNC(=O)c1ccc(-c2cnc3c(O)cccc3c2)cc1 was tested, and the Potency was inconclusive: 19.2 µM [inhibitor, partial curve]. CN(C)CC1CCN(C2CCN(C(=O)c3cccc(-c4cc(O)c5ncccc5c4)c3)CC2)CC1 was tested, and the Potency was inconclusive: 24.1 µM [inhibitor, partial curve]. In the case of N[C@@H]1CCN(c2cnc3c(O)ccc(C(=O)O)c3c2)C1, the Potency is reported as inconclusive: 13.6 µM [inhibitor, partial curve]. With O=C(O)c1ccnc2c(O)cccc12 the “activity, negative = inhibition” value was inactive: -19%. For CN1CCN(C(=O)c2cccc(-c3cc(O)c4ncccc4c3)c2)CC1, the Potency was inconclusive: 27.1 µM [inhibitor, partial curve]. In the case of NC1CCN(c2cnc3c(O)ccc(C(=O)O)c3c2)CC1, the Potency is reported as inconclusive: 12.1 µM [inhibitor, partial curve]. With O=C(c1ccc(-c2cc(O)c3ncccc3c2)cc1)N1CCNCC1 the Potency was inconclusive: 24.1 µM [inhibitor, partial curve]. In the case of O=C(O)c1ccc(O)c2ncc(-c3ccc(N4CCOCC4)cc3)cc12, the “activity, negative = inhibition” value is reported as inactive: -20.2%. For O=C(O)c1ccc(O)c2ncc(N3CCN(Cc4ccccc4)CC3)cc12, the Potency was inconclusive: 21.5 µM [inhibitor, partial curve]. In the case of O=C(O)c1ccc(O)c2ncc(N3CCCN(CCCc4ccncc4)CC3)cc12, the Potency is reported as inconclusive: 17.1 µM [inhibitor, partial curve]. With O=C(O)c1ccc(O)c2ncccc12 the “activity, negative = inhibition” value was inactive: -17%. For O=C(O)c1ccc(O)c2ncc(N3CCCC3)cc12, the Potency was inconclusive: 21.5 µM [inhibitor, partial curve]. O=C(O)c1ccc(O)c2ncc(N3CCCN(C4CCCC4)CC3)cc12 was tested, and the Potency was inconclusive: 13.6 µM [inhibitor, partial curve]. CN1CCN(C(=O)c2ccc(-c3cnc4c(O)ccc(C(=O)O)c4c3)cc2)CC1 was tested, and the “activity, negative = inhibition” value was inactive: -15.6%. With CN(C)CCCN1CCCN(C(=O)c2cccc(-c3cc(O)c4ncccc4c3)c2)C1 the Potency was active: 10.8 µM. O=C(O)c1ccc(O)c2ncc(-c3ccc(C(=O)N4CCNCC4)cc3)cc12 was tested, and the “activity, negative = inhibition” value was inactive: -16.8%. For O=C(O)c1ccc(O)c2ncc(NC3CCNC3)cc12 (stereo unspecified), the Potency was inconclusive: 15.2 µM [inhibitor, partial curve]. In the case of O=C(O)c1ccc(O)c2ncc(C3CCNCC3)cc12, the “activity, negative = inhibition” value is reported as inactive: -15%. For O=C(NCCCN1CCNCC1)c1cccc(-c2cc(O)c3ncccc3c2)c1, the Potency was inconclusive: 24.1 µM [inhibitor, partial curve]. With COC(=O)c1ccc(O)c2ncc(-c3ccc(C(=O)NCCCN(C)C)cc3)cc12 the Potency was inconclusive: 27.1 µM [inhibitor, partial curve]. In the case of NC(=O)c1ccnc2c(O)cccc12, the “activity, negative = inhibition” value is reported as inactive: -17.5%. In the case of CN(C)CCCNC(=O)c1ccc(-c2cnc3c(O)ccc(C(=O)O)c3c2)cc1, the “activity, negative = inhibition” value is reported as inactive: -17.5%. For O=C(O)c1ccc(O)c2ncc(-c3cccc(N4CCOCC4)c3)cc12, the “activity, negative = inhibition” value was inactive: -17.8%. CN(C)CCCNC(=O)c1ccc(-c2cc(O)c3ncccc3c2)cc1 was tested, and the Potency was inconclusive: 24.1 µM [inhibitor, partial curve]. In the case of O=C(O)c1ccc(O)c2ncc(NCC3CCCN(CCc4ccccc4)C3)cc12 (stereo unspecified), the Potency is reported as inconclusive: 17.1 µM [inhibitor, partial curve]. O=C(O)c1ccc(O)c2ncc(N3CCCCC3CCc3ccccn3)cc12 (stereo unspecified) was tested, and the Potency was inconclusive: 24.1 µM [inhibitor, partial curve].
